Assay results: the supplement of paper PMC12067093, “Discovery and optimisation of a covalent ligand for TRIM25 and its application to targeted protein ubiquitination” (Chemical Science, 2025)
This is one part of the list.

Compound: CC1Cc2ccccc2N1C(=O)C1CCCN(C1)C(=O)CCl (mixture of isomers) [TRIM25 ligand 11 (diastereomer mixture)]
Experiment: probe-labelled cysteine peptide fold change vs DMSO (competition) (log2 fold change); higher = less target engagement (more negative = stronger competition)
Conditions: THP-1, incubation time: 4 h
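Note: competitive chemoproteomic profiling in live THP-1 cells with an iodoacetamide desthiobiotin (IA-DTB) probe, comparing probe-labelled peptide intensities in compound-treated cells against DMSO-treated controls.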

Row | Target | probe-labelled cysteine peptide fold change (10 µM) | probe-labelled cysteine peptide fold change (50 µM)
1 | EFEMP1_Q12805_377_CVCPVSNAMCR (UniProt Q12805) | 0.364 | 0.167
2 | EIF2S2_P20042_281+284_EYVTCHTCR (UniProt P20042) | -0.0193 | 0.0605
3 | EIF2AK4_Q9P2K8_285_CIGSDEQLGK (UniProt Q9P2K8) | 0.141 | 0.0778
4 | EEF1A1_P68104_234_KDGNASGTTLLEALDCILPPTRPTDKPLR (UniProt P68104) | -0.271 | -0.439
5 | ECPAS_Q5VYK3_1257_TIAALLPCLLDK (UniProt Q5VYK3) | -0.0673 | -0.101
6 | EEF1A1_P68104_411_FLKSGDAAIVDMVPGKPMCVESFSDYPPLGR (UniProt P68104) | 0.947 | 1.14
7 | EEFSEC_P57772_55_GITLDLGFSCFSVPLPAR (UniProt P57772) | -0.119 | 0.184
8 | EIF2B3_Q9NR50_206_FHTGLVDAHLYCLKK (UniProt Q9NR50) | -0.323 | -0.0666
9 | EHHADH_Q08426_566_YCPIPDVLCELGR (UniProt Q08426) | -0.00247 | -0.151
10 | EEF1A1_P68104_234_KDGNASGTTLLEALDCILPPTRPTDK (UniProt P68104) | -0.0722 | -0.115
11 | EIF1AX_P47813_51_LEAMCFDGVKR (UniProt P47813) | -0.0826 | 0.0645
12 | EEA1_Q15075_1402_VCDACFNDLQG (UniProt Q15075) | -0.151 | -0.0885
13 | EIF2S3_P41091_311_LMCKPIFSK (UniProt P41091) | -0.491 | -0.529
14 | EEF2_P13639_466_YVEPIEDVPCGNIVGLVGVDQFLVK (UniProt P13639) | 0.0592 | 0.0324
15 | EEF1D_P29692_247_KLQIQCVVEDDKVGTDLLEEEITK (UniProt P29692) | -0.0807 | -0.177
16 | ECM1_Q16610_384_THHHLCCR (UniProt Q16610) | 0.288 | 0.46
17 | EDC3_Q96F86_341_NVHQRPTVALLCGPHVK (UniProt Q96F86) | 0.0922 | 0.0282
18 | EEF1A1_P68104_363+370_NDPPMEAAGFTAQVIILNHPGQISAGYAPVLDCHTAHIACK (UniProt P68104) | 0.054 | -0.169
19 | EIF2S1_P05198_70_IGRNECVVVIRVDK (UniProt P05198) | -0.393 | -0.163
20 | EHHADH_Q08426_559_RYCPIPDVLCELGR (UniProt Q08426) | -0.0567 | -0.0384
21 | ECPAS_Q5VYK3_1503_EECNLWTEVWQENVPGSFGGIR (UniProt Q5VYK3) | 0.205 | 0.058

Row | Target | probe-labelled cysteine peptide fold change (10 µM) | probe-labelled cysteine peptide fold change (50 µM)
22 | EFEMP1_Q12805_190_ADQVCINLR (UniProt Q12805) | 0.363 | 0.364
23 | EFTUD2_Q15029_144+148_TCFVDCLIEQTHPEIRK (UniProt Q15029) | -0.16 | -0.136
24 | EHMT1_Q9H9B1_1203_FINHHCEPNLVPVR (UniProt Q9H9B1) | -0.00325 | 0.177
25 | EFTUD2_Q15029_842_LMEPYYFVEVQAPADCVSAVYTVLAR (UniProt Q15029) | 0.434 | -0.0202
26 | EEF2_P13639_369_CELLYEGPPDDEAAMGIK (UniProt P13639) | -0.0902 | -0.139
27 | ECH1_Q13011_159+171+182_CPKPVIAAVHGGCIGGGVDLVTACDIR (UniProt Q13011) | 0.106 | 0.113
28 | EDC4_Q6P2E9_1130_SCQAMFQQINDSFR (UniProt Q6P2E9) | 0.091 | 0.0884
29 | EHMT1_Q9H9B1_954_ENRYDCVVLFLSR (UniProt Q9H9B1) | -0.0485 | 0.222
30 | EEF1A1P5_Q5VTE0_363+370_NDPPMEAAGFTAQVIILNHPGQISAGYAPVLDCHMAHIACK (UniProt Q5VTE0) | -0.133 | -0.214
31 | ECSIT_Q9BQ95_299_CVYYHILR (UniProt Q9BQ95) | -0.0582 | 0.0964
32 | EIF2S2_P20042_226_KTSFVNFTDICK (UniProt P20042) | -0.15 | -0.0977
33 | EEF1G_P26641_266_KAAAPAPEEEMDECEQALAAEPK (UniProt P26641) | -0.276 | -0.245
34 | EEF1A2_Q05639_411_SGDAAIVEMVPGKPMCVESFSQYPPLGR (UniProt Q05639) | -0.0284 | -0.134
35 | ECM1_Q16610_395_HPPSPTRDECFAR (UniProt Q16610) | 0.017 | 0.113
36 | EHMT2_Q96KQ7_842_CDLHAVNYHGDTPLHIAAR (UniProt Q96KQ7) | 0.104 | 0.111
37 | EIF2S2_P20042_284_EYVTCHTCR (UniProt P20042) | 0.0405 | 0.105
38 | EIF1AD_Q8N9N8_89_AEISFVLCK (UniProt Q8N9N8) | 0.054 | 0.00318
39 | EFEMP1_Q12805_70_CVNHYGGYLCLPK (UniProt Q12805) | 0.26 | 0.0934
40 | EIF2D_P41214_386_EQPYHPPDIKPLYCVPASMTLLFQESGHK (UniProt P41214) | -0.225 | -0.35
41 | EIF2S2_P20042_302_LYFLQCETCHSR (UniProt P20042) | 0.0321 | 0.0618
42 | EIF2A_Q9BY44_306_CDPVFDFGTGPR (UniProt Q9BY44) | 0.0225 | -0.0017

A second format for some results above.
Row	Target	probe-labelled cysteine peptide fold change (10 µM)	probe-labelled cysteine peptide fold change (50 µM)
26	EEF2_P13639_369_CELLYEGPPDDEAAMGIK (UniProt P13639)	-0.0902	-0.139
27	ECH1_Q13011_159+171+182_CPKPVIAAVHGGCIGGGVDLVTACDIR (UniProt Q13011)	0.106	0.113
28	EDC4_Q6P2E9_1130_SCQAMFQQINDSFR (UniProt Q6P2E9)	0.091	0.0884
29	EHMT1_Q9H9B1_954_ENRYDCVVLFLSR (UniProt Q9H9B1)	-0.0485	0.222

Additional results:

Row | Target | probe-labelled cysteine peptide fold change (10 µM) | probe-labelled cysteine peptide fold change (50 µM)
43 | EHMT2_Q96KQ7_428_GFEELPLCSCR (UniProt Q96KQ7) | -0.0369 | -0.115
44 | EIF3A_Q14152_198_KLCDNLR (UniProt Q14152) | -0.0142 | -0.0594
45 | ECPAS_Q5VYK3_1364_LCELIR (UniProt Q5VYK3) | 0.0253 | 0.152
46 | EDC3_Q96F86_272_EFCTDSGLVVPSISYELHKK (UniProt Q96F86) | -0.147 | -0.104
47 | EIF2A_Q9BY44_80_AVCLEFSPK (UniProt Q9BY44) | -0.033 | 0.00415
48 | EFTUD2_Q15029_525_VLGENYTLEDEEDSQICTVGR (UniProt Q15029) | 0.0278 | 0.109
49 | EED_O75530_254_IMSCGMDHSLK (UniProt O75530) | -0.0331 | -0.17
50 | EEF2_P13639_751_LMEPIYLVEIQCPEQVVGGIYGVLNR (UniProt P13639) | -0.0478 | -0.149
51 | EHMT1_Q9H9B1_1105_LLPEFNMAEPPLIFECNHACSCWR (UniProt Q9H9B1) | -0.00285 | 0.0212
52 | ECHDC1_Q9NTX5_133_SLGTPEDGMAVCMFMQNTLTR (UniProt Q9NTX5) | 0.0217 | 0.0214
53 | ECPAS_Q5VYK3_1420_SCAFAMGHLVR (UniProt Q5VYK3) | -0.0415 | 0.138
54 | EIF2B1_Q14232_115_IADLCHTFIK (UniProt Q14232) | -0.0863 | 0.0153
55 | EGLN1_Q9GZT9_326_CVTCIYYLNK (UniProt Q9GZT9) | 0.00611 | 0.134
56 | EFTUD2_Q15029_148_TCFVDCLIEQTHPEIR (UniProt Q15029) | 0.0976 | 0.00619
57 | ECD_O95905_211_AHCFLPAGIVAVLK (UniProt O95905) | -0.168 | 0.187
58 | EEF1A2_Q05639_370_SDPPQEAAQFTSQVIILNHPGQISAGYSPVIDCHTAHIACK (UniProt Q05639) | -0.133 | -0.13
59 | EIF2B5_Q13144_414_VAAGAQIHQSLLCDNAEVK (UniProt Q13144) | 0.195 | -0.298
60 | EFTUD2_Q15029_476_IEHTYTGGVDSDLGEAMSDCDPDGPLMCHTTK (UniProt Q15029) | -0.11 | -0.51
61 | EFL1_Q7Z2Z2_831_CGPNILVNK (UniProt Q7Z2Z2) | -0.187 | -0.0156
62 | EED_O75530_182_IINPITMQCIK (UniProt O75530) | -0.11 | -0.0595
63 | EHHADH_Q08426_199_RLCNKPIQSLPNMDSIFSEALLK (UniProt Q08426) | -0.246 | -0.026

Row | Target | probe-labelled cysteine peptide fold change (10 µM) | probe-labelled cysteine peptide fold change (50 µM)
64 | EFTUD2_Q15029_674_CFAETPNK (UniProt Q15029) | 0.0899 | -0.00194
65 | EEF2K_O00418_213_QVDIMQMCIIELK (UniProt O00418) | 0.23 | 0.115
66 | EEFSEC_P57772_442_LDADIHTNTCR (UniProt P57772) | -0.0126 | -0.0441
67 | EEF2_P13639_728_CLYASVLTAQPR (UniProt P13639) | -0.0594 | -0.0645
68 | ECI2_O75521_77_QATEGPCNMPKPGVFDLINK (UniProt O75521) | -0.19 | -0.218
69 | EFL1_Q7Z2Z2_646_LLNQADPCVQILIQETGEHVLVTAGEVHLQR (UniProt Q7Z2Z2) | 0.0676 | 0.252
70 | EEF1G_P26641_266_AAAPAPEEEMDECEQALAAEPK (UniProt P26641) | 0.128 | -0.0815
71 | EIF2B4_Q9UI10_266_LKPYMSFLTQCRPLSASMHNAIK (UniProt Q9UI10) | -0.0998 | 0.0094
72 | EIF2A_Q9BY44_366_LISKPVASDSTYFAWCPDGEHILTATCAPR (UniProt Q9BY44) | 0.0117 | 0.0285
73 | EIF2B3_Q9NR50_300_CYVHIMK (UniProt Q9NR50) | -0.0123 | 0.0363
74 | EIF2B5_Q13144_196_CHEDNVVVAVDSTTNR (UniProt Q13144) | 0.0445 | 0.0258
75 | EDEM3_Q9BZQ6_82_LGNQVLEMFDHAYGNYMEHAYPADELMPLTCR (UniProt Q9BZQ6) | 0.0496 | -0.128
76 | EDC4_Q6P2E9_299_GHSTCLSEGALSPDGTVLATASHDGYVK (UniProt Q6P2E9) | 0.0628 | -0.195
77 | EFTUD2_Q15029_468+476_IEHTYTGGVDSDLGEAMSDCDPDGPLMCHTTK (UniProt Q15029) | -0.117 | -0.451
78 | ECT2_Q9H8V3_661_QIFDVVYEVDGCPANLLSSHR (UniProt Q9H8V3) | 0.179 | -0.00801
79 | EEF2_P13639_651_IWCFGPDGTGPNILTDITK (UniProt P13639) | 0.041 | 5.9e-07
80 | ECH1_Q13011_187_YCAQDAFFQVK (UniProt Q13011) | 0.0159 | 0.0683
81 | EGLN1_Q9GZT9_201_LALEYIVPCMNK (UniProt Q9GZT9) | 0.0588 | -0.0709

Exported with tabs: part of the list above
Row	Target	probe-labelled cysteine peptide fold change (10 µM)	probe-labelled cysteine peptide fold change (50 µM)
4	EEF1A1_P68104_234_KDGNASGTTLLEALDCILPPTRPTDKPLR (UniProt P68104)	-0.271	-0.439
5	ECPAS_Q5VYK3_1257_TIAALLPCLLDK (UniProt Q5VYK3)	-0.0673	-0.101
